Source: PubChem BioAssay AID504834 (National Center for Advancing Translational Sciences (NCATS), 2011)
Hit rate of the full screen: of about 320,000 compounds, about 22,000 (6.9%) were called active. The inconclusive results got no clear call from the source; some entries with a clear call stand among them for comparison. The call rests on the fitted dose curve; in most records, active means well fitted inhibition curve with a large enough effect; inconclusive means small, poorly fitted or top-dose-only effect, or another doubt; inactive means no such curve, though single readings can be large or run the other way. Potencies beside an inconclusive call are fits to weak or partial responses and may not hold up.

Test: Primary qHTS for delayed death inhibitors of the malarial parasite plastid, 96 hour incubation
Conditions: P. falciparum luciferase reporter growth; series mostly up to 28.7 µM
Method in brief: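 Plates of compound plus infected erythrocytes (2% hematocrit, 0.05% parasitemia final) incubate 96 hours, 37 C, 5% CO2. Detection reagent added; reduced luminescence from the parasites' luciferase reporter flags inhibition.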
Potency means the concentration at half of the fitted maximal effect.

Compound	Potency
Cc1ccc(OCc2nnc(SCC(=O)CC(=O)Nc3ccccc3)o2)cc1	inconclusive: 10.4 µM [inhibitor, partial curve, poor fit]
COc1cccc(-c2nnn(CC(=O)N3CCC(C)CC3)n2)c1	inconclusive: 13.1 µM [inhibitor, single point]
O=C(O)C1=CC[C@@H](c2ccc(Cl)cc2)N(S(=O)(=O)c2ccc(Cl)cc2)[C@H]1c1ccccc1	inconclusive: 16.5 µM [inhibitor, single point]
CCOC(=O)C1=C(C)NC(=O)NC1c1cn(-c2ccccc2)nc1-c1cccs1 (centres undefined)	inconclusive: 13.1 µM [inhibitor, single point]
COc1ccc(C2C3=C(N=C4SCC(=O)N42)c2ccccc2CC3)cc1 (centres undefined)	active: 11.7 µM
CN(C)CCN(C(=O)C1CCCCC1)c1nc2cc3c(cc2s1)OCO3	inconclusive: 13.1 µM [inhibitor, single point]
Cc1cccc(CS(=O)(=O)c2ncc(CO)n2C)c1	inactive
CNC(=S)N1CCn2cccc2C1c1ccc(F)cc1 (centres undefined)	inconclusive: 8.28 µM [inhibitor, partial curve, poor fit]
Cc1nc2c(sc(=S)n2Cc2ccco2)c(=O)n1CC(=O)Nc1ccccc1Cl	inconclusive: 16.5 µM [inhibitor, single point]
CCCc1cc(Nc2ccccc2C)n2ncnc2n1	inconclusive: 16.5 µM [inhibitor, single point]
CC(C)[C@H](NS(=O)(=O)c1ccccc1)C(=O)OCC(=O)Nc1ccccc1Sc1ccccc1	inactive
COc1ccccc1NC(=O)CSc1ccc2nnc(-c3ccc(C)cc3)n2n1	inconclusive: 18.5 µM [inhibitor, single point]
CCOC(=O)C1=C(COc2ccccc2)NC(=O)NC1c1ccc(Br)cc1 (centres undefined)	active: 3.29 µM
CNC(=O)CSc1nc2cccnc2n1-c1ccc(F)cc1	inconclusive: 9.28 µM [inhibitor, partial curve]
O=C(CN1CCN(S(=O)(=O)/C=C/c2ccccc2)CC1)NCC(F)(F)F	inconclusive: 14.7 µM [inhibitor, partial curve, poor fit]
CSc1ccc(CNC(=O)c2c(C)noc2C)s1	inconclusive: 18.5 µM [inhibitor, single point]
COc1ccc([C@H]2CC(=O)C=C(c3cccc(C#N)c3)C2)cc1	inactive
O=C(NCc1ccccc1)c1ccc2nc(N3CCOCC3)sc2c1	inactive
Cc1cc(C)cc(NS(=O)(=O)c2ccc3c(c2)C(C)(C)C(=O)N3C)c1	inconclusive: 5.22 µM [inhibitor, partial curve]
C=C(C)Cn1c(CCCNC(=O)CC)nc2ccccc21	inconclusive: 10.4 µM [inhibitor, partial curve, poor fit]
CCN(CC(O)COCc1ccc(Cl)cc1)C1CCCCC1 (centres undefined)	inconclusive: 18.5 µM [inhibitor, partial curve, poor fit]
CCCCNC(=O)c1c(CSc2ccccc2)noc1C(=O)NCc1ccccc1	inconclusive: 18.5 µM [inhibitor, single point]
Cc1ccc(-c2cc(C(=O)N3CCCC3)no2)cc1	inactive

An excerpt from the list above:
Compound	Potency
CNC(=O)CSc1nc2cccnc2n1-c1ccc(F)cc1	inconclusive: 9.28 µM [inhibitor, partial curve]
O=C(CN1CCN(S(=O)(=O)/C=C/c2ccccc2)CC1)NCC(F)(F)F	inconclusive: 14.7 µM [inhibitor, partial curve, poor fit]
CSc1ccc(CNC(=O)c2c(C)noc2C)s1	inconclusive: 18.5 µM [inhibitor, single point]
COc1ccc([C@H]2CC(=O)C=C(c3cccc(C#N)c3)C2)cc1	inactive

Remaining list, next part.

Compound	Potency
COc1cccc(OCC(Cn2cnc3ccccc32)OC(C)=O)c1 (centres undefined)	inactive
Cc1cc(S(=O)(=O)N2CCCOC2CNC(=O)C(=O)NCc2ccco2)ccc1F (centres undefined)	inactive
O=[N+]([O-])c1ccc(Sc2ncccn2)c([N+](=O)[O-])c1	active: 3.29 µM
COc1ccc2[nH]c(C(=O)NCCN3CCOCC3)cc2c1	inactive
CN1N=C(C(=O)N2CCc3c([nH]c4ccccc34)C2c2c(F)cccc2Cl)CCC1=O (centres undefined)	inconclusive: 9.28 µM [inhibitor, partial curve, poor fit]
COc1ccc(N2CCN(C(=O)C3(C)CC3(Cl)Cl)CC2)cc1 (centres undefined)	inconclusive: 16.5 µM [inhibitor, single point]
O=C(NC(=S)Nc1cccc2c(O)cccc12)c1ccccc1[N+](=O)[O-]	inconclusive: 18.5 µM [inhibitor, single point]
O=[N+]([O-])c1ccc(COc2ccc(Br)cc2CN2CCOCC2)cc1	inconclusive: 3.7 µM [inhibitor, full curve, poor fit]
Cc1ccc(C(=O)N2CC(C)SC2=Nc2cccc(S(=O)(=O)N(C)C)c2)cc1 (centres undefined)	inconclusive: 18.5 µM [inhibitor, single point]
COC(=O)Nc1nn(-c2ccc(OC)cc2)c(=O)c(C#N)c1C	inconclusive: 9.28 µM [inhibitor, single point]
COc1ccc2c(c1)OC[C@H]1[C@H]2N2C(=O)CN(CC3CCCO3)C(=O)[C@@]2(C)[C@H]1c1ccccc1 (some centres undefined)	inconclusive: 5.86 µM [inhibitor, partial curve, poor fit]
CCOc1ccccc1N1CCN(C(=O)Cc2ccc(S(=O)(=O)N3CCOCC3)s2)CC1	inconclusive: 4.65 µM [inhibitor, partial curve]
CCCCN(C)CCN1C(=O)C2C(C(=O)Nc3cccc(OC)c3)C3C=CC2(O3)C1C(=O)NC1CCCCC1C (centres undefined)	inconclusive: 10.4 µM [inhibitor, single point]
CC(C)CC(=O)NC(=S)Nc1ccc(NC(=O)c2ccco2)cc1	active: 6.57 µM
CCC1Oc2ccc(C)cc2N(CC(=O)NCCCN2CCCCC2CC)C1=O (centres undefined)	inactive
CC(C)n1c(=S)[nH]c2cc(C(F)(F)F)ccc21	inconclusive: 18.5 µM [inhibitor, single point]
COC(=O)c1c(NC(=O)CSc2nc3ccccc3c(=O)n2-c2ccccc2)sc(C)c1C	active: 9.28 µM
Cc1cc(N2C(=O)c3ccc(C(=O)Nc4ccc(CC(=O)O)cc4)cc3C2=O)no1	active: 1.85 µM
COc1cc(-c2cn(S(=O)(=O)c3cccc4nsnc34)nc2N)cc(OC)c1OC	inconclusive: 10.4 µM [inhibitor, partial curve, poor fit]
CNC(=O)c1cc(C(=O)c2ccc(Cl)cc2)c(Br)[nH]1	inactive
COc1ccc(N(CC(=O)Nc2ccc3c(c2)OCCO3)S(=O)(=O)c2cccc(C)c2)cc1	inactive
Cc1ccc(OCCn2c(=O)cnc3ccccc32)cc1	inconclusive: 13.1 µM [inhibitor, partial curve, poor fit]
CC(=O)c1cccc(Nc2nc(-c3ccccc3)cs2)c1	inconclusive: 16.5 µM [inhibitor, single point]

Compound	Potency
Cc1ccc(S(=O)(=O)N2CCOCC2)cc1C(=O)Nc1ccc2c(c1)CCC2	inconclusive: 10.4 µM [inhibitor, single point]
Cc1cc(=O)n2c(n1)NC(=NCc1ccccc1)NC2c1ccccc1 (centres undefined)	inconclusive: 9.28 µM [inhibitor, single point]
COc1ccc(OC)c(NC(=S)NCc2ccc(S(N)(=O)=O)cc2)c1	inconclusive: 14.7 µM [inhibitor, partial curve]
c1cncc(-c2nnc(C3CCCCC3)o2)c1	inconclusive: 2.33 µM [inhibitor, full curve]
Cn1c(CO)cnc1S(=O)(=O)Cc1c(Cl)cccc1Cl	inactive
O=C(NCc1ccco1)c1ccc(Oc2ccccc2)cc1	active: 7.38 µM
Cc1ccc(C(=O)NCCc2cccs2)cc1	inconclusive: 2.08 µM [inhibitor, single point]
CC(C)(C)n1nnnc1C(c1cccnc1)N(Cc1ccccc1)Cc1ccco1 (centres undefined)	active: 1.85 µM
CCCc1nc(SCC(=O)N2CCC(C)CC2)c2c(=O)n(C)c(=O)n(C)c2n1	inconclusive: 18.5 µM [inhibitor, single point]
CCOC(=O)C(C)Sc1nc(=O)n2cc(C)ccc2n1 (centres undefined)	inconclusive: 0.657 µM [inhibitor, full curve, poor fit]
CCCC(C)c1nnc(NC(=O)COc2ccc3c(c2)OCO3)s1 (centres undefined)	inconclusive: 0.131 µM [inhibitor, full curve, poor fit]
CC1CN(c2cc(=O)n(-c3ccc(Cl)cc3)c(=O)[nH]2)CC(C)O1 (centres undefined)	inconclusive: 0.465 µM [inhibitor, partial curve, poor fit]
O=C(NC1CCCC1)c1ccc(Cn2c(=O)[nH]c3ccsc3c2=O)cc1	inconclusive: 7.38 µM [inhibitor, partial curve]
Cc1ccc(C2C3=C(CC(C)(C)CC3=O)NC3=C2C(=O)c2ccccc23)cc1 (centres undefined)	active: 1.85 µM
CCOc1ccc(NS(=O)(=O)c2coc(C(N)=O)c2)cc1	inconclusive: 11.7 µM [inhibitor, single point]
Cc1cccc(-c2ncc(CN3CCN(CCC(C)C)C(CCO)C3)cn2)c1 (centres undefined)	inconclusive: 6.57 µM [inhibitor, single point]
COc1ccc(C(CC(=O)O)NC(=O)c2sc3ccccc3c2Cl)cc1 (centres undefined)	inactive
CCc1cc(=O)oc2cc(C)cc(OC(C)C(=O)NCc3ccncc3)c12 (centres undefined)	active: 9.28 µM
CCCCCOc1ccccc1C(=O)NCCCC(=O)O	inconclusive: 11.7 µM [inhibitor, single point]
Cc1nc2ccccc2c(=O)n1NC(=O)/C=C/c1ccc(Br)cc1	inconclusive: 18.5 µM [inhibitor, single point]
COc1ccc(C(C)(C)C)cc1NC(=O)COC(=O)CSCc1c(C)noc1C	inactive
COc1ccc(C(=O)Nc2ccccc2C(=O)N2CCCCCC2)cc1OC	inconclusive: 14.7 µM [inhibitor, single point]
CCC(=O)Nc1cccc(-n2nnnc2SCC(=O)NCc2ccco2)c1	inconclusive: 13.1 µM [inhibitor, partial curve, poor fit]
